Results taken from US20150329501A1, “SUBSTITUTED [1,2,4]TRIAZOLE COMPOUNDS AND THEIR USE AS FUNGICIDES” (BASF SE, priority 2012, published 2015).
Some entries share one result that the patent states for a list of compounds.

What was measured:
Septoria tritici [1] = assay: Green house: preventative control of leaf blotch on wheat caused by Septoria tritici (Septtr P1) (G4); format: in vivo; settings: 300 ppm, sprayed the day before inoculation, untreated plants 80% infected
Septoria tritici [2] = assay: Microtest: activity against leaf blotch on wheat caused by Septoria tritici (Septtr) (M1, M6, M2-3, CM4); format: cell-based; settings: 405 nm, 7 days after inoculation, compound-free control = 100%
Botrytis cinerea = assay: Microtest: activity against the grey mold Botrytis cinerea in the microtiterplate test (Botrci) (M2, M4, M2-1, CM3); format: cell-based; settings: 405 nm, 7 days after inoculation, compound-free control = 100%
Pyricularia oryzae = format: cell-based; settings: 31 ppm; 405 nm, 7 days after inoculation; compound-free control = 100%
Alternaria solani [3] = assay: Microtest: activity against early blight caused by Alternaria solani (Alteso) (M3); format: cell-based; settings: 32 ppm; 405 nm, 7 days after inoculation; compound-free control = 100%
Phakopsora pachyrhizi = assay: Green house: protective control of soy bean rust on soy beans caused by Phakopsora pachyrhizi (Phakpa P1) (G1); format: in vivo; settings: 300 ppm, sprayed 1 day before inoculation, untreated plants 90% infected
Alternaria solani [4] = assay: Green house: preventative fungicidal control of early blight on tomatoes (Alternaria solani) (Alteso P1) (G2, G2-2); settings: 300 ppm, sprayed the day before inoculation; tomato; untreated plants 80% infected
Puccinia recondita = assay: Green house: preventative control of brown rust on wheat caused by Puccinia recondita (Puccrt P1) (G3); format: in vivo; settings: 300 ppm, sprayed the day before inoculation, untreated plants 90% infected

SMILES: C#CCOC(C)(Cn1cncn1)c1cccc(Oc2ccc(Cl)cc2)c1 (centres unmarked) [Compound I-7]
- infection (% diseased leaf area) (Septoria tritici [1]): less than or equal to 10%
- relative growth in % of the pathogen (Septoria tritici [2]; 32 ppm): ≤ 9%

SMILES: C#CC(O)(Cn1cncn1)c1cc(-c2ccc(C(F)(F)F)cc2)ccc1Cl (centres unmarked) [Compound I-36]
- relative growth in % of the pathogen (Botrytis cinerea; 31 ppm): ≤ 2%
- relative growth in % of the pathogen (Septoria tritici [2]; 31 ppm): ≤ 5%
- relative growth in % of the pathogen (Pyricularia oryzae): ≤ 9%

SMILES: OC(Cn1cncn1)(c1cc(Oc2ccc(Cl)cc2)ccc1Cl)C1CC1 (centres unmarked) [Compound I-9]
- relative growth in % of the pathogen (Alternaria solani [3]): ≤ 13%
- infection (% diseased leaf area) (Phakopsora pachyrhizi): less than or equal to 10%
- relative growth in % of the pathogen (Botrytis cinerea; 32 ppm): ≤ 7%
- infection (% diseased leaf area) (Septoria tritici [1]): less than or equal to 10%
- relative growth in % of the pathogen (Septoria tritici [2]; 32 ppm): ≤ 9%
- infection (% diseased leaf area) (Alternaria solani [4]): less than or equal to 10%

SMILES: CCOC(Cn1cncn1)(c1cc(Oc2ccc(Cl)cc2)ccc1C(F)(F)F)C(C)C (centres unmarked) [Compound I-20]
- relative growth in % of the pathogen (Alternaria solani [3]): ≤ 13%
- relative growth in % of the pathogen (Botrytis cinerea; 32 ppm): ≤ 7%
- relative growth in % of the pathogen (Septoria tritici [2]; 32 ppm): ≤ 9%

SMILES: CCOC(Cn1cncn1)(c1cc(Oc2ccc(Cl)cc2)ccc1Cl)C1CC1 (centres unmarked) [Compound I-23]
- infection (% diseased leaf area) (Puccinia recondita): less than or equal to 10%
- relative growth in % of the pathogen (Septoria tritici [2]; 32 ppm): ≤ 9%
- infection (% diseased leaf area) (Alternaria solani [4]): less than or equal to 10%

SMILES: OC(Cn1cncn1)(c1cc(-c2cccc(F)c2)ccc1Cl)C(F)(F)F (centres unmarked) [Compound I-34]
- relative growth in % of the pathogen (Septoria tritici [2]; 31 ppm): ≤ 5%
- relative growth in % of the pathogen (Pyricularia oryzae): ≤ 9%

SMILES: C#CCC(O)(Cn1cncn1)c1cccc(-c2ccc(Cl)cc2)c1 (centres unmarked) [Compound I-30]
- relative growth in % of the pathogen (Botrytis cinerea; 31 ppm): ≤ 6%
- relative growth in % of the pathogen (Pyricularia oryzae): ≤ 5%

SMILES: CC(C)C(O)(Cn1cncn1)c1cc(Oc2ccc(Cl)cc2)ccc1Cl (centres unmarked) [Compound I-10]
- relative growth in % of the pathogen (Alternaria solani [3]): ≤ 13%
- infection (% diseased leaf area) (Phakopsora pachyrhizi): less than or equal to 10%
- relative growth in % of the pathogen (Botrytis cinerea; 32 ppm): ≤ 7%
- relative growth in % of the pathogen (Septoria tritici [2]; 32 ppm): ≤ 9%
- infection (% diseased leaf area) (Alternaria solani [4]): less than or equal to 10%

SMILES: CCOC(Cn1cncn1)(c1cccc(Oc2ccc(Cl)cc2)c1)C1CC1 (centres unmarked) [Compound I-14]
- relative growth in % of the pathogen (Septoria tritici [2]; 32 ppm): ≤ 9%
- infection (% diseased leaf area) (Alternaria solani [4]): less than or equal to 10%

SMILES: OC(Cn1cncn1)(c1cccc(-c2ccc(Cl)cc2)c1)C(F)(F)F (centres unmarked) [Compound I-29]
- relative growth in % of the pathogen (Botrytis cinerea; 31 ppm): ≤ 6%
- relative growth in % of the pathogen (Pyricularia oryzae): ≤ 5%

SMILES: CC(C)(C)C(O)(Cn1cncn1)c1cccc(Oc2ccc(Cl)cc2)c1 (centres unmarked) [Compound I-24]
- relative growth in % of the pathogen (Botrytis cinerea; 32 ppm): ≤ 7%
- relative growth in % of the pathogen (Septoria tritici [2]; 32 ppm): ≤ 9%

SMILES: CC#CC(O)(Cn1cncn1)c1cc(-c2ccc(Cl)cc2)ccc1Cl (centres unmarked) [Compound I-2]
- infection (% diseased leaf area) (Puccinia recondita): less than or equal to 10%
- infection (% diseased leaf area) (Phakopsora pachyrhizi): less than or equal to 10%
- infection (% diseased leaf area) (Septoria tritici [1]): less than or equal to 10%
- infection (% diseased leaf area) (Alternaria solani [4]): less than or equal to 10%

SMILES: C#CC(O)(Cn1cncn1)c1cc(Oc2ccc(F)cc2)ccc1Cl (centres unmarked) [Compound I-35]
- relative growth in % of the pathogen (Septoria tritici [2]; 31 ppm): ≤ 5%
- relative growth in % of the pathogen (Pyricularia oryzae): ≤ 9%

SMILES: CC(C)(C)C(O)(Cn1cncn1)c1cccc(-c2ccc(Cl)cc2)c1 (centres unmarked) [Compound I-26]
- infection (% diseased leaf area) (Puccinia recondita): less than or equal to 10%
- infection (% diseased leaf area) (Phakopsora pachyrhizi): less than or equal to 10%
- infection (% diseased leaf area) (Septoria tritici [1]): less than or equal to 10%

SMILES: CCOC(Cn1cncn1)(c1cc(Oc2ccc(Cl)cc2)ccc1Cl)C(C)C (centres unmarked) [Compound I-19]
- relative growth in % of the pathogen (Alternaria solani [3]): ≤ 13%
- infection (% diseased leaf area) (Puccinia recondita): less than or equal to 10%
- relative growth in % of the pathogen (Botrytis cinerea; 32 ppm): ≤ 7%
- relative growth in % of the pathogen (Septoria tritici [2]; 32 ppm): ≤ 9%
- infection (% diseased leaf area) (Alternaria solani [4]): less than or equal to 10%

SMILES: C=CCOC(Cn1cncn1)(c1cc(Oc2ccc(Cl)cc2)ccc1Cl)C1CC1 (centres unmarked) [Compound I-22]
- infection (% diseased leaf area) (Puccinia recondita): less than or equal to 10%
- relative growth in % of the pathogen (Septoria tritici [2]; 32 ppm): ≤ 9%
- infection (% diseased leaf area) (Alternaria solani [4]): less than or equal to 10%

SMILES: CC(C)(C)C(O)(Cn1cncn1)c1cc(Cl)cc(Oc2ccc(Cl)cc2)c1 (centres unmarked) [Compound I-31]
- relative growth in % of the pathogen (Pyricularia oryzae): ≤ 5%

SMILES: CC(O)(Cn1cncn1)c1cc(Oc2ccc(Cl)cc2)ccc1Cl (centres unmarked) [Compound I-8]
- relative growth in % of the pathogen (Alternaria solani [3]): ≤ 13%
- relative growth in % of the pathogen (Botrytis cinerea; 32 ppm): ≤ 7%
- relative growth in % of the pathogen (Septoria tritici [2]; 32 ppm): ≤ 9%
- infection (% diseased leaf area) (Alternaria solani [4]): less than or equal to 10%

SMILES: COC(Cn1cncn1)(c1cc(Oc2ccc(Cl)cc2)ccc1C(F)(F)F)C(C)C (centres unmarked) [Compound I-21]
- infection (% diseased leaf area) (Puccinia recondita): less than or equal to 10%
- infection (% diseased leaf area) (Alternaria solani [4]): less than or equal to 10%

SMILES: C=CCOC(Cn1cncn1)(c1cccc(Oc2ccc(Cl)cc2)c1)C1CC1 (centres unmarked) [Compound I-15]
- relative growth in % of the pathogen (Septoria tritici [2]; 32 ppm): ≤ 9%
- infection (% diseased leaf area) (Alternaria solani [4]): less than or equal to 10%

SMILES: OC(Cn1cncn1)(c1cc(Oc2ccc(Cl)cc2)ccc1Cl)C(F)(F)F (centres unmarked) [Compound I-33]
- relative growth in % of the pathogen (Septoria tritici [2]; 31 ppm): ≤ 5%
- relative growth in % of the pathogen (Pyricularia oryzae): ≤ 9%

SMILES: CC(O)(Cn1cncn1)c1cccc(Oc2ccc(Cl)cc2)c1 (centres unmarked) [Compound I-4]
- relative growth in % of the pathogen (Alternaria solani [3]): ≤ 13%
- relative growth in % of the pathogen (Botrytis cinerea; 32 ppm): ≤ 7%

SMILES: C#CCOC(Cn1cncn1)(c1cccc(Oc2ccc(Cl)cc2)c1)C1CC1 (centres unmarked) [Compound I-25]
- infection (% diseased leaf area) (Puccinia recondita): less than or equal to 10%
- infection (% diseased leaf area) (Alternaria solani [4]): less than or equal to 10%

SMILES: C#CCC(O)(Cn1cncn1)c1cc(Oc2ccc(Cl)cc2)ccc1C(F)(F)F (centres unmarked) [Compound I-37]
- relative growth in % of the pathogen (Botrytis cinerea; 31 ppm): ≤ 2%
- relative growth in % of the pathogen (Septoria tritici [2]; 31 ppm): ≤ 5%
- relative growth in % of the pathogen (Pyricularia oryzae): ≤ 9%

SMILES: COC(Cn1cncn1)(c1cc(Oc2ccc(Cl)cc2)ccc1Cl)C(C)C (centres unmarked) [Compound I-16]
- relative growth in % of the pathogen (Alternaria solani [3]): ≤ 13%
- infection (% diseased leaf area) (Puccinia recondita): less than or equal to 10%
- relative growth in % of the pathogen (Botrytis cinerea; 32 ppm): ≤ 7%
- relative growth in % of the pathogen (Septoria tritici [2]; 32 ppm): ≤ 9%
- infection (% diseased leaf area) (Alternaria solani [4]): less than or equal to 10%

SMILES: C=CCOC(Cn1cncn1)(c1cc(Oc2ccc(Cl)cc2)ccc1Cl)C(C)C (centres unmarked) [Compound I-17]
- infection (% diseased leaf area) (Puccinia recondita): less than or equal to 10%
- infection (% diseased leaf area) (Alternaria solani [4]): less than or equal to 10%

SMILES: C=CCOC(C)(Cn1cncn1)c1cccc(Oc2ccc(Cl)cc2)c1 (centres unmarked) [Compound I-28]
- relative growth in % of the pathogen (Pyricularia oryzae): ≤ 5%

SMILES: CC(O)(Cn1cncn1)c1cc(Oc2ccc(Cl)cc2)ccc1C(F)(F)F (centres unmarked) [Compound I-11]
- relative growth in % of the pathogen (Botrytis cinerea; 32 ppm): ≤ 7%
- relative growth in % of the pathogen (Septoria tritici [2]; 32 ppm): ≤ 9%

SMILES: CC(C)C(O)(Cn1cncn1)c1cc(Oc2ccc(Cl)cc2)ccc1C(F)(F)F (centres unmarked) [Compound I-12]
- infection (% diseased leaf area) (Phakopsora pachyrhizi): less than or equal to 10%
- relative growth in % of the pathogen (Botrytis cinerea; 32 ppm): ≤ 7%
- relative growth in % of the pathogen (Septoria tritici [2]; 32 ppm): ≤ 9%

SMILES: CC(C)C(O)(Cn1cncn1)c1cccc(Oc2ccc(Cl)cc2)c1 (centres unmarked) [Compound I-3]
- relative growth in % of the pathogen (Alternaria solani [3]): ≤ 13%
- relative growth in % of the pathogen (Botrytis cinerea; 32 ppm): ≤ 7%
- infection (% diseased leaf area) (Alternaria solani [4]): less than or equal to 10%

SMILES: OC(Cn1cncn1)(c1cc(Oc2ccc(Cl)cc2)ccc1C(F)(F)F)C1CC1 (centres unmarked) [Compound I-13]
- relative growth in % of the pathogen (Alternaria solani [3]): ≤ 13%
- infection (% diseased leaf area) (Phakopsora pachyrhizi): less than or equal to 10%
- relative growth in % of the pathogen (Botrytis cinerea; 32 ppm): ≤ 7%
- relative growth in % of the pathogen (Septoria tritici [2]; 32 ppm): ≤ 9%

SMILES: CC(C)(C)C(O)(Cn1cncn1)c1cc(Cl)cc(-c2ccc(Cl)cc2)c1 (centres unmarked) [Compound I-27]
- relative growth in % of the pathogen (Botrytis cinerea; 31 ppm): ≤ 6%
- relative growth in % of the pathogen (Pyricularia oryzae): ≤ 5%

SMILES: CCOC(C)(Cn1cncn1)c1cccc(Oc2ccc(Cl)cc2)c1 (centres unmarked) [Compound I-6]
- relative growth in % of the pathogen (Alternaria solani [3]): ≤ 13%
- infection (% diseased leaf area) (Septoria tritici [1]): less than or equal to 10%
- relative growth in % of the pathogen (Septoria tritici [2]; 32 ppm): ≤ 9%

SMILES: OC(Cn1cncn1)(c1cccc(Oc2ccc(Cl)cc2)c1)C1CC1 (centres unmarked) [Compound I-5]
- relative growth in % of the pathogen (Alternaria solani [3]): ≤ 13%
- relative growth in % of the pathogen (Botrytis cinerea; 32 ppm): ≤ 7%
- infection (% diseased leaf area) (Alternaria solani [4]): less than or equal to 10%
